Laboratory results published in publication PMC12672510.
No constants are given. Whether binding was seen depends on the method and setting. Binding seen in cells or lysates may run through a third protein. Some results given as binding are weak or reduced against the parent protein; the word gives no strength. Sequences can lack the tags named with a protein.

By UniProt entry, the sequences of proteins in these tests, tags left out. Where a name states a change or a piece, a line headed by the entry shows the natural chain unless it says otherwise.
UniProt Q13315: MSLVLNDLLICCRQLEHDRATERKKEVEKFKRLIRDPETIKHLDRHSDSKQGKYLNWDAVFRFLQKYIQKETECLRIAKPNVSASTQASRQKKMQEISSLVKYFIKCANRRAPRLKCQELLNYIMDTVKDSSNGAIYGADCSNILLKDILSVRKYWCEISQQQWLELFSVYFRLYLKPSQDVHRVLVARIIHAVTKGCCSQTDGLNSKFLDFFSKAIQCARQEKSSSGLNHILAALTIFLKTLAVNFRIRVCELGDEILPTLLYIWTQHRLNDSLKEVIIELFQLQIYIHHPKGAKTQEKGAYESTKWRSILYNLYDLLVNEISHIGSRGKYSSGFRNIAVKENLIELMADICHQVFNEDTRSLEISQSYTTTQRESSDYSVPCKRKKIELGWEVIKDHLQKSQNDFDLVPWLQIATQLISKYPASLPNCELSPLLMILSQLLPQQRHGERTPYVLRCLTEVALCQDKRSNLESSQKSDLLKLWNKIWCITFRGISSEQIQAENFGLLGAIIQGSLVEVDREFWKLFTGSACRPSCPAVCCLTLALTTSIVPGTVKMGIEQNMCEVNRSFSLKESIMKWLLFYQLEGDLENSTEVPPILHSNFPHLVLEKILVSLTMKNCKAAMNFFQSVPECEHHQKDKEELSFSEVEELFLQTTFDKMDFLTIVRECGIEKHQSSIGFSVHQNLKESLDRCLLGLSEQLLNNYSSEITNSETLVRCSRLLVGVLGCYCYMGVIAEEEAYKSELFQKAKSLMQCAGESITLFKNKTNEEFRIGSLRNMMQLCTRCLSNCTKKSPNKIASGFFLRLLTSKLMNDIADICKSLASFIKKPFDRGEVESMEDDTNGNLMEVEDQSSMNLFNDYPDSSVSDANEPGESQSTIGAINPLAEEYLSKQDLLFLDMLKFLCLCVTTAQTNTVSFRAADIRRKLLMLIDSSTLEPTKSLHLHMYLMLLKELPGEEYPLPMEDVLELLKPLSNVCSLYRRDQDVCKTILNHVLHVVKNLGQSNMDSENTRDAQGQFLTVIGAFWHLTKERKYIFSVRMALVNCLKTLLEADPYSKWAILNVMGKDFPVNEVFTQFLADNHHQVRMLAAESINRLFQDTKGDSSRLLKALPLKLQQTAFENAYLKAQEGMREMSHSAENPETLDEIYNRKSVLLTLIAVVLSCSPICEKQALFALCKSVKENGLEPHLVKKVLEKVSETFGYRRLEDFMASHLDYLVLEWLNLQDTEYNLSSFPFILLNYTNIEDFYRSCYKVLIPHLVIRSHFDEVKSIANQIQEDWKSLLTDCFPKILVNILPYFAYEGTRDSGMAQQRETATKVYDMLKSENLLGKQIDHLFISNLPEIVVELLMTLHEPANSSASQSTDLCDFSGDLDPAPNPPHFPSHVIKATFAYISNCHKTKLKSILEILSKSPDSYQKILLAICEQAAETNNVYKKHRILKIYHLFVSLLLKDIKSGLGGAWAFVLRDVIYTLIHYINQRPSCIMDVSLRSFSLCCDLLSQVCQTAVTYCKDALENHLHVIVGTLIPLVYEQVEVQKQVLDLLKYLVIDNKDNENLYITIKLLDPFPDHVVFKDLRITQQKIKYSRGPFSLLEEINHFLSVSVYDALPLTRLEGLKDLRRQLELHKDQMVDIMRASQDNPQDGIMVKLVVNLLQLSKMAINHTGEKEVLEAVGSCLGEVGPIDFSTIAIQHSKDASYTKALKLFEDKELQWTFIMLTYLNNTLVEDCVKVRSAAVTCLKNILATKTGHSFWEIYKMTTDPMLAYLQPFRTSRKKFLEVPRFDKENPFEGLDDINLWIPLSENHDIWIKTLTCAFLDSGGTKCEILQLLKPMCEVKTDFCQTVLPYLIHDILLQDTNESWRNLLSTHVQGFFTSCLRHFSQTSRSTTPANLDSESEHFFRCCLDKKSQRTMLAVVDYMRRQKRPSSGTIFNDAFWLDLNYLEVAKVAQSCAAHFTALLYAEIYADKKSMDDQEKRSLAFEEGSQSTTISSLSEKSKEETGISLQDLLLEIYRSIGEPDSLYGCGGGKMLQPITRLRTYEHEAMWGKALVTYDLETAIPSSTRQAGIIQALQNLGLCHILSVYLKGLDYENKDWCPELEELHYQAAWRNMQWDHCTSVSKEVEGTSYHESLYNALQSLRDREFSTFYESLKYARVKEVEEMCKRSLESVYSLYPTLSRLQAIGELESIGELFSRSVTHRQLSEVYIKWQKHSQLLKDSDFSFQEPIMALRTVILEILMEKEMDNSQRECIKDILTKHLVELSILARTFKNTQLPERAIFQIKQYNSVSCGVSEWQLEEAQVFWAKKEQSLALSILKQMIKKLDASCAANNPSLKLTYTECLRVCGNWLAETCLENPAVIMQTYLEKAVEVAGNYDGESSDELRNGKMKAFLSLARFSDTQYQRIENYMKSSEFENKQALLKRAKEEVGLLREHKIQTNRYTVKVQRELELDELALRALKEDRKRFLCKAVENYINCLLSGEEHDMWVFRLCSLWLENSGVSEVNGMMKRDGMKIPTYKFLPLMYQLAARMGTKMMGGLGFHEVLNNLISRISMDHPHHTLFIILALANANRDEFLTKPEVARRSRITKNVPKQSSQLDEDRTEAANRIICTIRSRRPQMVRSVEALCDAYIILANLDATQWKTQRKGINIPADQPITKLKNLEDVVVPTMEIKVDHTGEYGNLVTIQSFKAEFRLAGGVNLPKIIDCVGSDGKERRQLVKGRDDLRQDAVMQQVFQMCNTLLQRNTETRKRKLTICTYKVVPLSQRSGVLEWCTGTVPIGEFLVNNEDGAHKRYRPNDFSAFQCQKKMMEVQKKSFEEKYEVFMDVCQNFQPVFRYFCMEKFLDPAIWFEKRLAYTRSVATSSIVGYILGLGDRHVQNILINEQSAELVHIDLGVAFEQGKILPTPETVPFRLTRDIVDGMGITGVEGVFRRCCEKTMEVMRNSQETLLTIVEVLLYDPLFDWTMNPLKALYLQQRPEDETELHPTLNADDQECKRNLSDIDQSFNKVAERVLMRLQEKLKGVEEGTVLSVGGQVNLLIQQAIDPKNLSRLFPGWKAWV

B1: TANK-binding kinase 1 (TBK1), endogenous (enzyme, UniProt Q9UHD2 1-729)
chain: MQSTSNHLWLLSDILGQGATANVFRGRHKKTGDLFAIKVFNNISFLRPVDVQMREFEVLKKLNHKNIVKLFAIEEETTTRHKVLIMEFCPCGSLYTVLEEPSNAYGLPESEFLIVLRDVVGGMNHLRENGIVHRDIKPGNIMRVIGEDGQSVYKLTDFGAARELEDDEQFVSLYGTEEYLHPDMYERAVLRKDHQKKYGATVDLWSIGVTFYHAATGSLPFRPFEGPRRNKEVMYKIITGKPSGAISGVQKAENGPIDWSGDMPVSCSLSRGLQVLLTPVLANILEADQEKCWGFDQFFAETSDILHRMVIHVFSLQQMTAHKIYIHSYNTATIFHELVYKQTKIISSNQELIYEGRRLVLEPGRLAQHFPKTTEENPIFVVSREPLNTIGLIYEKISLPKVHPRYDLDGDASMAKAITGVVCYACRIASTLLLYQELMRKGIRWLIELIKDDYNETVHKKTEVVITLDFCIRNIEKTVKVYEKLMKINLEAAELGEISDIHTKLLRLSSSQGTIETSLQDIDSRLSPGGSLADAWAHQEGTHPKDRNVEKLQVLLNCMTEIYYQFKKDKAERRLAYNEEQIHKFDKQKLYYHATKAMTHFTDECVKKYEAFLNKSEEWIRKMLHLRKQLLSLTNQCFDIEEEVSKYQEYTNELQETLPQKMFTASSGIKHTMTPIYPSSNTLVEMTLGMKKLKEEMEGVVKELAENNHILERFGSLTMDGGLRNVDCL
B2: V5-His-TBK1 (overexpressed from pEF6/V5-His-TBK1) (enzyme, UniProt Q9UHD2 1-729)
chain: MQSTSNHLWLLSDILGQGATANVFRGRHKKTGDLFAIKVFNNISFLRPVDVQMREFEVLKKLNHKNIVKLFAIEEETTTRHKVLIMEFCPCGSLYTVLEEPSNAYGLPESEFLIVLRDVVGGMNHLRENGIVHRDIKPGNIMRVIGEDGQSVYKLTDFGAARELEDDEQFVSLYGTEEYLHPDMYERAVLRKDHQKKYGATVDLWSIGVTFYHAATGSLPFRPFEGPRRNKEVMYKIITGKPSGAISGVQKAENGPIDWSGDMPVSCSLSRGLQVLLTPVLANILEADQEKCWGFDQFFAETSDILHRMVIHVFSLQQMTAHKIYIHSYNTATIFHELVYKQTKIISSNQELIYEGRRLVLEPGRLAQHFPKTTEENPIFVVSREPLNTIGLIYEKISLPKVHPRYDLDGDASMAKAITGVVCYACRIASTLLLYQELMRKGIRWLIELIKDDYNETVHKKTEVVITLDFCIRNIEKTVKVYEKLMKINLEAAELGEISDIHTKLLRLSSSQGTIETSLQDIDSRLSPGGSLADAWAHQEGTHPKDRNVEKLQVLLNCMTEIYYQFKKDKAERRLAYNEEQIHKFDKQKLYYHATKAMTHFTDECVKKYEAFLNKSEEWIRKMLHLRKQLLSLTNQCFDIEEEVSKYQEYTNELQETLPQKMFTASSGIKHTMTPIYPSSNTLVEMTLGMKKLKEEMEGVVKELAENNHILERFGSLTMDGGLRNVDCL

Biological target: Flag-His-ATM wt (ataxia-telangiectasia mutated, wild type) (UniProt Q13315)
Assay: co-IP; anti-FLAG M2 affinity gel on lysates of transfected ATM KO 293T cells, with or without 100 µM MnCl2, lysates at 6 or 14 h after Mn; overnight at 4°C, washed four times with TBS; Western blot for ATM and TBK1

Binder | binding
B1 | binds
B2 | binds
